In publication PMC4736046:
These are yes or no findings as the source states them, for the method shown. For part of these data: Binding seen in cells or lysates may run through a third protein. Some entries that bind do so weakly or less than the wild type. One block for each substance: values may come before it.

Chains of the proteins cited; added tags and fusions are not shown. Lines headed by an entry give the natural chain unless they say otherwise; changes in a name come on top.
UniProt Q9Y696: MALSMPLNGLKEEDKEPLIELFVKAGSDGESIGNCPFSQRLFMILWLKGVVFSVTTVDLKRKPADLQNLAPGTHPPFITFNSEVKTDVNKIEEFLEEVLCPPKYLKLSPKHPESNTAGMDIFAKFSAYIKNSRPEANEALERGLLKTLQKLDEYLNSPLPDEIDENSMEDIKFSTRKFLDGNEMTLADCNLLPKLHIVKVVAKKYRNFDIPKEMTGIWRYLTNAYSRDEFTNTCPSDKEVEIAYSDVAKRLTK
UniProt Q60598: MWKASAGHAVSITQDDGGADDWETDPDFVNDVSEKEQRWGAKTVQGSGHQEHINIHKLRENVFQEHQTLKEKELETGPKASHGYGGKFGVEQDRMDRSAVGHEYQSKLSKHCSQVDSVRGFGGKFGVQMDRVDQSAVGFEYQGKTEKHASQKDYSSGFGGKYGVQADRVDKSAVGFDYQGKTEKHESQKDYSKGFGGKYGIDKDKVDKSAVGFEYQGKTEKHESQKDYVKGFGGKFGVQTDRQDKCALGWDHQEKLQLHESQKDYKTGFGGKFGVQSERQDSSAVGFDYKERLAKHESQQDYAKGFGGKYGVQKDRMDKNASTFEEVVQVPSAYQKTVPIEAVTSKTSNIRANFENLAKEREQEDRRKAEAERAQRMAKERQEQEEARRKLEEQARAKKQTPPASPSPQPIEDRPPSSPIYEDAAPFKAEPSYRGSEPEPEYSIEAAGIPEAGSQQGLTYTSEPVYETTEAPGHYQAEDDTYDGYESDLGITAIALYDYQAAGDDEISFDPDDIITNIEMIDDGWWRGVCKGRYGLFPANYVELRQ

Legend:
Flag-CLIC4 = Flag-CLIC4 (UniProt Q9Y696); experiment: co-IP; HEK 293T cells transiently transfected with mCherry-cortactin and/or Flag-CLIC4; anti-Flag antibody; blots with anti-DsRed and anti-CLIC4
[1] = target: purified recombinant cortactin (aa 82-330) fragment (UniProt Q60598); experiment: pull-down; purified recombinant cortactin (aa 82-330) fragment as bait, purified CLIC4 pulled down (Supplementary Fig. 8b-d); both purified
[2] = target: purified glutathione transfer protein (GST) fusion of CLIC4 (UniProt Q9Y696); experiment: pull-down; converse experiment: purified GST fusion of CLIC4 or GST alone as bait, purified cortactin fragment pulled down (Supplementary Fig. 8e); both purified

- binding (Flag-CLIC4): binds
Substance: mCherry-cortactin (from UniProt Q60598 1-546)

- binding [1]: binds
Substance: purified CLIC4 (from UniProt Q9Y696 1-253)

- binding [2]: binds
Substance: purified recombinant cortactin (aa 82-330) fragment (from UniProt Q60598 82-330) (domain or fragment)
